Data taken from publication PMC2939893.
No constants are given. Whether binding was seen depends on the method and setting. For some of these results: Binding seen in cells or lysates may run through a third protein. Some entries that bind do so weakly or less than the wild type. For some of these results: Where a sequence is shown, tags or fusion partners need not be part of it.

Protein sequences, listed by entry. Tags and fused reporters are not part of them. Residues count along the entry.
UniProt Q9R171, residues 22-193: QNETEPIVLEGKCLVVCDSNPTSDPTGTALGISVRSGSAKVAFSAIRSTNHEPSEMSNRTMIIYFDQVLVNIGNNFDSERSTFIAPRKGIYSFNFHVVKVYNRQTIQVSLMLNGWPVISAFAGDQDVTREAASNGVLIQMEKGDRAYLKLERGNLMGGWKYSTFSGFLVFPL
UniProt Q8BME9, residues 25-198: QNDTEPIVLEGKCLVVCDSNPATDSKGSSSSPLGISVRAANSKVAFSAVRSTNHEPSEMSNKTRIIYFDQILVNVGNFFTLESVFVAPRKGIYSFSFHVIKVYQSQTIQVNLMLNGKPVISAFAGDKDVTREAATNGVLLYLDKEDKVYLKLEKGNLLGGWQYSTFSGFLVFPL
UniProt Q4ZJM7, residues 24-482: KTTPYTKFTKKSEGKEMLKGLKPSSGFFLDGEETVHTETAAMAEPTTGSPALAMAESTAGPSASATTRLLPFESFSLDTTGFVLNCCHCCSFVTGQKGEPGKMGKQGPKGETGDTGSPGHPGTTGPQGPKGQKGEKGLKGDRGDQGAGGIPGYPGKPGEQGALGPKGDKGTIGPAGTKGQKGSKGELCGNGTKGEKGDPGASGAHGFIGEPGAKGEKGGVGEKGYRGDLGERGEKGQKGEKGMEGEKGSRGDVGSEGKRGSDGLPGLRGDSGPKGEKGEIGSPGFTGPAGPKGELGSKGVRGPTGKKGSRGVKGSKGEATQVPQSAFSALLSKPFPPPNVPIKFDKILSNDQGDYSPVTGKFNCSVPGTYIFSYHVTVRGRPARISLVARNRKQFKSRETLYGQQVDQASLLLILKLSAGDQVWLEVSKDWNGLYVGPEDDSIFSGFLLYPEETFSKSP

Legend:
[1] = biological target: Cerebellin-1, epitope-tagged (mouse) (UniProt Q9R171); assay: co-IP + native gel or EMSA; otolin co-immunoprecipitated with FLAG-tagged Cbln1 or Oc90 from supernatants, eluted and run on a 4% Tris-Glycine native gel, immunoblot
[2] = biological target: Cerebellin-4, epitope-tagged (mouse) (UniProt Q8BME9); assay: co-IP; supernatants of HEK293T cells co-expressing HA-tagged otolin and FLAG-tagged proteins; IP with anti-FLAG affinity gel in IP buffer (150 mM Tris-HCl pH 7.4, 150 mM NaCl, 1 mM EDTA, 1% Triton X-100), 4°C; immunoblot with anti-HA
[3] = biological target: T1, CTRP3, epitope-tagged (mouse) (UniProt Q9ES30); assay: as above
T1 sequence: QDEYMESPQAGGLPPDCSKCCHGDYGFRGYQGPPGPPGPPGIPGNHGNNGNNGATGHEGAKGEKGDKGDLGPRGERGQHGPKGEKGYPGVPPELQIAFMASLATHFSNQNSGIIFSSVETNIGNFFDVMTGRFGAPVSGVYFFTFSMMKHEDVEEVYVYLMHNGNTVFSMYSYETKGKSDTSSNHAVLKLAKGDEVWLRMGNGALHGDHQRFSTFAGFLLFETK

[4] = biological target: Cerebellin-1, epitope-tagged (mouse) (UniProt Q9R171); assay: as above
[5] = biological target: Cerebellin-1, epitope-tagged (mouse) (UniProt Q9R171); assay: co-IP; as the co-IP from supernatants, in the presence of 5 mM EDTA; data not shown
[6] = biological target: endogenous Otolin from P0 mouse inner ear (mouse (endogenous in P0 mouse inner ear)) (UniProt Q4ZJM7); assay: non-reducing SDS-PAGE; ground-up P0 mouse inner ear in LDS sample buffer with or without β-mercaptoethanol, 90°C 10 min, 4-12% Bis-Tris gel; immunoblot with anti-otolin antibody
[7] = biological target: endogenous Otolin from P0 mouse inner ear (mouse (endogenous in P0 mouse inner ear)) (UniProt Q4ZJM7); assay: native gel or EMSA; P0 mouse inner ear ground to powder, resuspended in native sample buffer, 4% Tris-Glycine native gel; immunoblot with anti-otolin antibody

Row | binding [1] | binding [2] | binding [3] | binding [4] | binding [5] | binding [6] | binding [7] | Substance
1 | binds | binds weakly | binds weakly | binds | binds | – | – | C-terminal HA-tagged Otolin (from UniProt Q4ZJM7 24-482)
2 | – | – | – | – | – | binds | binds | endogenous Otolin from P0 mouse inner ear (from UniProt Q4ZJM7 24-482)
